Measurements as given in the supplement of paper PMC3334620.
Over roughly 33,000 sequences, “E-score (-0.5 to 0.5)” has its median near -0.015; the highest 2% begin near 0.3. Some of the results follow.

The sequences below were run against T1, Abf1 (UniProt P14164) (assay: PBM E-score (8-mer binding enrichment) (E-score (-0.5 to 0.5)); higher = stronger / more preferred TF binding). Conditions: protein concentration: 200 nM; construct: GST-full length.
T1 sequence: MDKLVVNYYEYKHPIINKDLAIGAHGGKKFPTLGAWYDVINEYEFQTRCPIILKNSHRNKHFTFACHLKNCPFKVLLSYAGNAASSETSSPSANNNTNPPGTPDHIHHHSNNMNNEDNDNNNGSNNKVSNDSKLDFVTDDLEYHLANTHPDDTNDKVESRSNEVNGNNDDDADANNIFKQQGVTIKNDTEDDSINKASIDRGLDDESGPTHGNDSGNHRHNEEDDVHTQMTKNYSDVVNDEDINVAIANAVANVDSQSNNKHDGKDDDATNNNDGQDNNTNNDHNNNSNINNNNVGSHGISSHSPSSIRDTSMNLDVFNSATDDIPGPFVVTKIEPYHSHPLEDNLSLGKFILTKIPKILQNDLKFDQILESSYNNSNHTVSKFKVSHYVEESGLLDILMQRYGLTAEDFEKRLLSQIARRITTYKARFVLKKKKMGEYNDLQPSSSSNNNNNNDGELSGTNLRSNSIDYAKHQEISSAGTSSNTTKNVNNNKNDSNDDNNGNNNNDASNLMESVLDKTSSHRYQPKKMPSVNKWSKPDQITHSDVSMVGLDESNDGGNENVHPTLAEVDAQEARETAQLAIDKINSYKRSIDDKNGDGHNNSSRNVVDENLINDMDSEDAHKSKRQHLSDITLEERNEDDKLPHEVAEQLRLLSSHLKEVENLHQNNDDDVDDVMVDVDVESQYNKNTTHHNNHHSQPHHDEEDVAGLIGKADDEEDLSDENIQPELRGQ
Method in brief: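 Universal all-10-mer Agilent arrays, double-stranded by primer extension on fresh or once-stripped slides, were probed with about 100-200 nM GST-tagged yeast transcription factors made by PURExpress. Fluorescent anti-GST detected bound protein, and masliner normalised the scans. E-scores from the Universal PBM Analysis Suite were given to each ungapped eight-base word pooled with its reverse complement.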

Row | Sequence | PBM E-score
1 | GTGAGACA | 0.12
2 | ATCCTATC | 0.0831
3 | GCCAAACC | -0.176
4 | CGAGCGGC | -4e-05
5 | CAAAGCAA | 0.0821
6 | CCCATCCA | -0.0429
7 | CGATGCCG | -0.0951
8 | ACTCAACC | 0.0268
9 | GCCGGCCA | 0.0934
10 | ACCCCAAT | -0.176
11 | GAGCTAAC | -0.0892
12 | AGTCAGTC | -0.197
13 | AATTCCGG | -0.0708
14 | CGACCATC | 0.0447
15 | CATCCACA | 0.161
16 | AGTAACTC | 0.032
17 | GTCCCACA | -0.0496
18 | AACTTGAG | -0.247
19 | ATGTGCTA | 0.00032
20 | ATCGAAGG | 0.00682
21 | GTGTGAAA | 0.139
22 | ACGCTAAG | -0.193

Row | Sequence | PBM E-score
23 | GGACAGGA | -0.117
24 | GTAGTACA | 0.127
25 | ATCACGAT | 0.26
26 | CCCACCGA | -0.261
27 | GGCAGATA | 0.0862
28 | CGATTTCC | 0.0575
29 | CAGGTCAC | 0.26
30 | ACGCTTTA | -0.0323
31 | TAATCTGA | 0.107
32 | GCCGTCGC | 0.153
33 | CTATCTGA | 0.0155
34 | GGTTAAGA | 0.0346
35 | ACGCAGAG | -0.18
36 | AGCAAAGG | -0.096
37 | GGCGATTA | 0.129
38 | AATGCTAA | 0.00906
39 | AGTGTGGG | -0.169
40 | CAGGCGAC | 0.108
41 | ATTTCGAA | 0.113
42 | CTTGTCCC | -0.0642
43 | CTTTTATC | 0.129
44 | GAAACTCC | -0.109

Row | Sequence | PBM E-score
45 | AGTAAGAC | -0.0233
46 | TCAGATCA | 0.153
47 | GTACGAGA | 0.277
48 | ACATGACC | 0.137
49 | GGTGAAAC | 0.0128
50 | AAGCTATA | -0.0525
51 | CGAAATAC | 0.221
52 | GTTGCGTA | 0.212
53 | CAGCCATG | -0.0374
54 | CGTAACGC | 0.00536
55 | AGGTCAAG | -0.242
56 | GCAGCTCC | -0.312
57 | CCCGCTTA | -0.129
58 | CAAGGGTC | -0.0615
59 | AGCAAATA | 0.0692
60 | GGCTCTAA | -0.215
61 | TACTAGAA | -0.014
62 | GGTTAGAA | 0.0152
63 | CGAGGTGC | 0.0393
64 | GCTAGCTA | -0.107
65 | ACGTAAGC | -0.0114
66 | AACGGAGT | 0.0865

Copied from the entries so far for reference:
Row | Sequence | PBM E-score
65 | ACGTAAGC | -0.0114
66 | AACGGAGT | 0.0865

Next part:

Row | Sequence | PBM E-score
67 | ATCTCGTA | 0.188
68 | ATGGAGAC | 0.205
69 | CATGCACC | -0.0237
70 | CTCGAGTC | -0.0161
71 | GAGCCCAA | -0.134
72 | ATTATATC | 0.171
73 | CTGCGTGA | 0.135
74 | AAGATTGC | 0.0157
75 | GGGTTGCA | -0.0243
76 | GGTATGAA | -0.0573
77 | CCAGATAG | -0.216
78 | AAAGTTAT | 0.123
79 | CGGTATTC | 0.166
80 | TAGTACGA | 0.287
81 | CCCCCCTC | -0.399
82 | TATAGTAA | 0.15
83 | ACCAATTA | 0.116
84 | GACAACAC | 0.0709
85 | AAGCGCAT | -0.0811
86 | CGAGTCGC | -0.00595
87 | ACGGAGGC | -0.179
88 | GGAGTTGA | 0.0171

Single entries from the list.
Entry for AGCAAATA under PBM E-score: 0.0692
Entry for CGAGCGGC under PBM E-score: -4e-05
Entry for GTACGAGA under PBM E-score: 0.277
Entry for ATCACGAT under PBM E-score: 0.26

Remaining list, next part:

Row | Sequence | PBM E-score
89 | GATCACGC | 0.366
90 | TCCCGCAA | -0.285
91 | CGTGACGA | 0.351
92 | ACACTACA | 0.169
93 | ACTCTCCG | -0.0264
94 | CTCCTAGC | -0.302
95 | ACGAATAG | 0.0375
96 | CCAGTAGG | -0.0764
97 | TATTACCA | -0.0039
98 | CAGTACCC | -0.0706
99 | ACCCACTG | -0.119
100 | GGCGTTCA | 0.0017
101 | ACCTAAAA | -0.169
102 | ACTCTTAT | 0.112
103 | TATACAGA | 0.0923
104 | CGCATACA | -0.0105
105 | GCGGTAGA | -0.139
106 | GACCGTTA | 0.19
107 | CATCGCAC | 0.15
108 | TCAGGACA | 0.156
109 | CGCGTCTC | 0.047
110 | GCATGAAC | -0.0757
